# Data as given in article PMC12828004.
# Amino acid sequences for entries named in this document (tags omitted).
# UniProt P41145: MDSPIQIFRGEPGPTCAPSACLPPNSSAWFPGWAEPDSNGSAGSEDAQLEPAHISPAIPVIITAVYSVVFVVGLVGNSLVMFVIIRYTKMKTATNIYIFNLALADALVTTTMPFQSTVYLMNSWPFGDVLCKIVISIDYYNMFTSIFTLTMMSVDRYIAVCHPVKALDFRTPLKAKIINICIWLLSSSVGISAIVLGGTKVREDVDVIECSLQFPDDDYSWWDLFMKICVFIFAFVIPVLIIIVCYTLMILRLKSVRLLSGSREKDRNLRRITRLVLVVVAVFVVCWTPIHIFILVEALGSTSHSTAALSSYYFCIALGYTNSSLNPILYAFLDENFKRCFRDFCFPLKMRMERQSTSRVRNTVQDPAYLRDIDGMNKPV
# Results are given in words; binding and its absence hold for the method and conditions named. Binding seen in cells or lysates may run through a third protein. Some results given as binding are weak or reduced against the parent protein; the word gives no strength.
# B1: SLC9A3R1 Q73A point mutant (protein, UniProt O14745 1-358)
# chain: MSADAAAGAPLPRLCCLEKGPNGYGFHLHGEKGKLGQYIRLVEPGSPAEKAGLLAGDRLVEVNGENVEKETHAQVVSRIRAALNAVRLLVVDPETDEQLQKLGVQVREELLRAQEAPGQAEPPAAAEVQGAGNENEPREADKSHPEQRELRPRLCTMKKGPSGYGFNLHSDKSKPGQFIRSVDPDSPAEASGLRAQDRIVEVNGVCMEGKQHGDVVSAIRAGGDETKLLVVDRETDEFFKKCRVIPSQEHLNGPLPVPFTNGEIQKENSREALAEAALESPRPALVRSASSDTSEELNSQDSPPKQDSTAPSSTSSSDPILDFNISLAMAKERAHQKRSSKRAPQMDWSKKNELFSNL
# B2: SLC9A3R1 S77A point mutant (protein, UniProt O14745 1-358)
# chain: MSADAAAGAPLPRLCCLEKGPNGYGFHLHGEKGKLGQYIRLVEPGSPAEKAGLLAGDRLVEVNGENVEKETHQQVVARIRAALNAVRLLVVDPETDEQLQKLGVQVREELLRAQEAPGQAEPPAAAEVQGAGNENEPREADKSHPEQRELRPRLCTMKKGPSGYGFNLHSDKSKPGQFIRSVDPDSPAEASGLRAQDRIVEVNGVCMEGKQHGDVVSAIRAGGDETKLLVVDRETDEFFKKCRVIPSQEHLNGPLPVPFTNGEIQKENSREALAEAALESPRPALVRSASSDTSEELNSQDSPPKQDSTAPSSTSSSDPILDFNISLAMAKERAHQKRSSKRAPQMDWSKKNELFSNL
# Target: FLAG-OPRK1, co-expressed in HEK293T cells (UniProt P41145)
# Assay: co-IP; FLAG-OPRK1 co-expressed with GFP-SLC9A3R1 constructs (full length, truncations, point mutants); HEK293T cells stated for Fig. 7B, cells of Fig. 7D not stated; NP-40 buffer; FLAG beads, 4 °C, 3 h; immunoblot
row,Binder,binding
1,B1,binds
2,B2,binds
